Source: patent US12410152B2, “Oxazole and thioazole-type cullin ring ubiquitin ligase compounds and uses thereof” (Proxygen GmbH, priority 2019, dated 2025)
This continues a long series; more values of the same kind are listed elsewhere.

System: KBM7 WT cells (global proteome)
Assay: Quantitative expression proteomics (TMT isobaric tagging), drug vs DMSO
Type: cell-based, human
Source text: The mechanism by which the assayed molecules re-program a functional CRL4B complex based on the data shown could be that drug binding to CUL4B recruits a neo-substrate directly to the cullin backbone. Alternatively, drug binding could stabilize CUL4B function to boost time intervals where a functionally competent CUL4B complexes can be formed. Here, the word “functional” implies that the CUL4B backbone of this complex needs to be neddylated, and a CUL4B associated E2 ubiquitin-conjugating enzyme (UBE2G1) needs to be bound. FIG. 9 outlines one possible mechanism. Both predicted mechanisms of action would result in a functionally altered CRL4B complex, and thus an altered stability of drug-induced (neo-) substrates. In order to identify target proteins with a decreased abundance or, in other words, target proteins that become degraded by CRL4B after drug treatment, global proteome composition was measured using quantitative expression proteomics (TMT-labeling). In brief, KBM7 cells were drug treated for 12 hours, lysed, and subjected to isobaric tagging. Ensuing proteomics analysis quantified a total of 7,903 proteins at a minimum spectral count of 2. […] Data on essentiality are taken from Hart et al., G3, August 2017 (PMID: 28655737).
50×10^6 KBM7^WT cells per condition were collected, washed four times with ice-cold PBS, the supernatant aspirated and pellets snap-frozen in liquid N2. Each washed cell pellet was lysed separately in 40 μL of freshly prepared lysis buffer as previously described (see Mayor-Ruiz et al., Mol Cell 2019)
Offline Fractionation via RP-HPLC at high pH and 2D-RP/RP Liquid Chromatography Mass Spectrometry were performed as previously described (see Mayor-Ruiz et al., Mol Cell 2019).
Acquired raw data files were processed using the Proteome Discoverer 2.2.0 platform, utilizing the Sequest HT database search engine and Percolator validation software node (V3.04) to remove false positives with a false discovery rate (FDR) of 1% on peptide and protein level under strict conditions. Searches were performed with full tryptic digestion against the human SwissProt database v2017.06 with up to two allowed miscleavage sites. Oxidation (+15.9949 Da) of methionine was set as variable modification, whilst carbamidomethylation (+57.0214 Da) of cysteine residues and TMT 6-plex labelling of peptide N-termini and lysine residues were set as fixed modifications. Data was searched with mass tolerances of ±10 ppm and ±0.02 Da on the precursor and fragment ions, respectively. Results were filtered to include peptide spectrum matches (PSMs) with Sequest HT cross-correlation factor (Xcorr) scores of […] and high peptide confidence assigned by Percolator. MS^2 signal-to-noise values (S/N) values of TMT reporter ions were used to estimate peptide/protein abundance changes. PSMs with precursor isolation interference values of ≥ 50% and average TMT-reporter ion S/N≤10 were excluded from quantitation. Only unique peptides were used for TMT quantitation as well as for TOP3 label-free quantitation. Isotopic impurity correction and TMT channel-normalization based on total peptide amount were applied. For statistical analysis and p-value calculation, the integrated ANOVA hypothesis test was used. TMT ratios with p-values below 0.01 were considered as significant. Only proteins with >1 peptide detected and >1 unique peptide detected were considered for further analysis. For the calling of destabilized proteins, a log 2 fold change threshold (drug/DMSO) of −0.3 was applied.
Comparison of overall proteome-wide changes in KBM7 cells treated with IC020772.1 (2.5 μM), IC021313.2 (7 μM) or T6938051 (3.5 μM) for 5 h and 12h, using quantitative proteomics based on isobaric tagging.
The protein names in Table 4, Table 5 and Table 6 refer to the protein names as provided by HUGO Gene Nomenclature Committee (HGNC) database. […]

O=C(CSc1nnc2c(n1)[nH]c1ccccc12)Nc1ccc(Cl)cn1 [IC020772.1]
log2FC (IC020772.1/DMSO) (FAM173B (Q6P4H8-1)): −0.4364 | log2FC (IC020772.1/DMSO) (FAM193B (Q96PV7-1)): −0.3383 | log2FC (IC020772.1/DMSO) (FBN2 (P35556-1)): −0.3437 | log2FC (IC020772.1/DMSO) (FBXO11 (Q86XK2-5)): −0.484 | log2FC (IC020772.1/DMSO) (FBXO28 (Q9NVF7-1)): −0.662 | log2FC (IC020772.1/DMSO) (FBXO38 (Q6PU6-1)): −0.8135 | log2FC (IC020772.1/DMSO) (FEM1A (Q9BSK4)): −1.155 | log2FC (IC020772.1/DMSO) (FOPNL (Q96NB1-1)): −0.3401 | log2FC (IC020772.1/DMSO) (FSTL1 (Q12841-1)): −0.873 | log2FC (IC020772.1/DMSO) (FZD6 (O60353-1)): −0.48 | log2FC (IC020772.1/DMSO) (GALNT6 (Q8NCL4)): −0.3659 | log2FC (IC020772.1/DMSO) (GBGT1 (Q8N5D6-1)): −0.8314 | log2FC (IC020772.1/DMSO) (GCNT1 (Q02742)): −0.4422 | log2FC (IC020772.1/DMSO) (GEN1 (Q17RS7)): −0.4403 | log2FC (IC020772.1/DMSO) (GFRA1 (P56159-1)): −0.3364 | log2FC (IC020772.1/DMSO) (GGNBP2 (Q9H3C7-1)): −0.8783 | log2FC (IC020772.1/DMSO) (GINM1 (Q9NU53)): −0.4501 | log2FC (IC020772.1/DMSO) (GINS4 (Q9BRT9-1)): −0.3752 | log2FC (IC020772.1/DMSO) (GLIPR1 (P48060-1)): −0.4112 | log2FC (IC020772.1/DMSO) (GLRX2 (Q9NS18-2)): −0.662 | log2FC (IC020772.1/DMSO) (GNL3L (Q9NVN8)): −0.3959 | log2FC (IC020772.1/DMSO) (GOLPH3L (Q9H4A5-1)): −0.3419 | log2FC (IC020772.1/DMSO) (GPBPILl (Q9HC44)): −0.6597 | log2FC (IC020772.1/DMSO) (GPKOW (Q92917)): −0.3437 | log2FC (IC020772.1/DMSO) (GPSM2 (P81274)): −0.8059 | log2FC (IC020772.1/DMSO) (GSKIP (Q9P0R6)): −0.3733 | log2FC (IC020772.1/DMSO) (GTPBP10 (A4D1E9-1)): −0.48 | log2FC (IC020772.1/DMSO) (HAUS7 (Q99871-2)): −0.4521 | log2FC (IC020772.1/DMSO) (HCLS1 (P14317-1)): −0.3201 | log2FC (IC020772.1/DMSO) (HECTD4 (Q9Y4D8-5)): −0.3733 | log2FC (IC020772.1/DMSO) (HELLS (Q9NRZ9-1)): −0.4093 | log2FC (IC020772.1/DMSO) (HERPUD1 (Q15011-1)): −0.8546 | log2FC (IC020772.1/DMSO) (HIF1AN (Q9NWT6)): −0.4422 | log2FC (IC020772.1/DMSO) (HIKESHI (Q53FT3)): −0.3383 | log2FC (IC020772.1/DMSO) (HMMR (O75330-3)): −0.9518 | log2FC (IC020772.1/DMSO) (HS6ST1 (O60243-1)): −0.484 | log2FC (IC020772.1/DMSO) (ICE1 (Q9Y2F5)): −0.3383 | log2FC (IC020772.1/DMSO) (IFRD2 (Q12894-2)): −0.3346 | log2FC (IC020772.1/DMSO) (IRF2 (P14316-1)): −0.484 | log2FC (IC020772.1/DMSO) (IRF7 (Q92985-4)): −0.3383 | log2FC (IC020772.1/DMSO) (ITGA4 (P13612-1)): −0.4364 | log2FC (IC020772.1/DMSO) (IVNS1ABP (Q9Y6Y0)): −0.662 | log2FC (IC020772.1/DMSO) (JADE1 (Q6IE81-1)): −0.9324 | log2FC (IC020772.1/DMSO) (JMJD4 (Q9H9V9-1)): −0.3346 | log2FC (IC020772.1/DMSO) (JPH1 (Q9HDC5)): −0.4501 | log2FC (IC020772.1/DMSO) (JUND (P17535)): −0.3659 | log2FC (IC020772.1/DMSO) (KAT14 (Q9H8E8-1)): −0.3696 | log2FC (IC020772.1/DMSO) (KAZN (Q674X7-1)): −0.3437 | log2FC (IC020772.1/DMSO) (KCNQ5 (Q9NR82-6)): −0.4461 | log2FC (IC020772.1/DMSO) (KCT2 (Q8NC54)): −0.811 | log2FC (IC020772.1/DMSO) (KCTD3 (Q9Y597-1)): −0.4759 | log2FC (IC020772.1/DMSO) (KCTD5 (Q9NXV2)): −0.8288 | log2FC (IC020772.1/DMSO) (KCTD20 (Q7Z5Y7-1)): −0.48 | log2FC (IC020772.1/DMSO) (KDM4A (O75164-1)): −0.4501 | log2FC (IC020772.1/DMSO) (KIAA0754 (O94854-1)): −0.7084 | log2FC (IC020772.1/DMSO) (KIAA1143 (Q96AT1)): −0.4501 | log2FC (IC020772.1/DMSO) (KIAA1524 (Q8TCG1-1)): −0.4442 | log2FC (IC020772.1/DMSO) (KIF18B (Q86Y91-2)): −0.4035 | log2FC (IC020772.1/DMSO) (KLHDC2 (Q9Y2U9-1)): −0.8546 | log2FC (IC020772.1/DMSO) (KLHL26 (Q53HC5)): −0.3364 | log2FC (IC020772.1/DMSO) (KNSTRN (Q9Y448-1)): −1.184 | log2FC (IC020772.1/DMSO) (LRIF1 (Q5T3J3-1)): −0.3959 | log2FC (IC020772.1/DMSO) (LRR1 (Q96L50-1)): −0.6758 | log2FC (IC020772.1/DMSO) (LSM1 (O15116)): −0.4461 | log2FC (IC020772.1/DMSO) (LTV1 (Q96GA3)): −0.6689 | log2FC (IC020772.1/DMSO) (MAX (P61244-1)): −0.3733 | log2FC (IC020772.1/DMSO) (MBP (P02686-1)): −0.9241 | log2FC (IC020772.1/DMSO) (MED30 (Q96HR3-1)): −0.3771 | log2FC (IC020772.1/DMSO) (MEF2C (Q06413-1)): −0.3978 | log2FC (IC020772.1/DMSO) (METTL2B (Q6P1Q9-1)): −0.3752 | log2FC (IC020772.1/DMSO) (METTL6 (Q8TCB7-1)): −0.3959 | log2FC (IC020772.1/DMSO) (MGAT5 (Q09328)): −0.3752 | log2FC (IC020772.1/DMSO) (MIER3 (Q7Z3K6-2)): −0.4016 | log2FC (IC020772.1/DMSO) (MLC1 (Q15049-1)): −0.811 | log2FC (IC020772.1/DMSO) (MPP5 (Q8N3R9-1)): −0.3752 | log2FC (IC020772.1/DMSO) (MTERF1 (Q99551)): −0.3437 | log2FC (IC020772.1/DMSO) (MTG1 (Q9BT17-1)): −0.3696 | log2FC (IC020772.1/DMSO) (MTIM (Q8N339)): −0.3789 | log2FC (IC020772.1/DMSO) (MTO1 (Q9Y2Z2-6)): −0.3771 | log2FC (IC020772.1/DMSO) (MYB (P10242-4)): −0.4112 | log2FC (IC020772.1/DMSO) (MZT1 (Q08AG7)): −0.4035 | log2FC (IC020772.1/DMSO) (NABP1 (Q96AH0-1)): −0.6967 | log2FC (IC020772.1/DMSO) (NDE1 (Q9NXR1-1)): −0.364 | log2FC (IC020772.1/DMSO) (NOL7 (Q9UMY1-1)): −0.3364 | log2FC (IC020772.1/DMSO) (NOP10 (Q9NPE3)): −0.3959 | log2FC (IC020772.1/DMSO) (NOP53 (Q9NZM5)): −0.7084 | log2FC (IC020772.1/DMSO) (NRP1 (O14786-1)): −0.4074 | log2FC (IC020772.1/DMSO) (NRROS (Q86YC3)): −0.8443 | log2FC (IC020772.1/DMSO) (NSA2 (O95478)): −0.6689 | log2FC (IC020772.1/DMSO) (NUMA1 (Q14980-2)): −0.3715 | log2FC (IC020772.1/DMSO) (NUPL2 (O15504-1)): −0.3752 | log2FC (IC020772.1/DMSO) (OAS1 (P00973-3)): −0.881
